According to the supplement of paper PMC7666118:
The list shows a part of the results.

Protein sequences, listed by entry. Tags and fused reporters are not part of them. Lines headed by an entry give the natural chain unless they say otherwise; changes in a name come on top.
UniProt Q8IZH2: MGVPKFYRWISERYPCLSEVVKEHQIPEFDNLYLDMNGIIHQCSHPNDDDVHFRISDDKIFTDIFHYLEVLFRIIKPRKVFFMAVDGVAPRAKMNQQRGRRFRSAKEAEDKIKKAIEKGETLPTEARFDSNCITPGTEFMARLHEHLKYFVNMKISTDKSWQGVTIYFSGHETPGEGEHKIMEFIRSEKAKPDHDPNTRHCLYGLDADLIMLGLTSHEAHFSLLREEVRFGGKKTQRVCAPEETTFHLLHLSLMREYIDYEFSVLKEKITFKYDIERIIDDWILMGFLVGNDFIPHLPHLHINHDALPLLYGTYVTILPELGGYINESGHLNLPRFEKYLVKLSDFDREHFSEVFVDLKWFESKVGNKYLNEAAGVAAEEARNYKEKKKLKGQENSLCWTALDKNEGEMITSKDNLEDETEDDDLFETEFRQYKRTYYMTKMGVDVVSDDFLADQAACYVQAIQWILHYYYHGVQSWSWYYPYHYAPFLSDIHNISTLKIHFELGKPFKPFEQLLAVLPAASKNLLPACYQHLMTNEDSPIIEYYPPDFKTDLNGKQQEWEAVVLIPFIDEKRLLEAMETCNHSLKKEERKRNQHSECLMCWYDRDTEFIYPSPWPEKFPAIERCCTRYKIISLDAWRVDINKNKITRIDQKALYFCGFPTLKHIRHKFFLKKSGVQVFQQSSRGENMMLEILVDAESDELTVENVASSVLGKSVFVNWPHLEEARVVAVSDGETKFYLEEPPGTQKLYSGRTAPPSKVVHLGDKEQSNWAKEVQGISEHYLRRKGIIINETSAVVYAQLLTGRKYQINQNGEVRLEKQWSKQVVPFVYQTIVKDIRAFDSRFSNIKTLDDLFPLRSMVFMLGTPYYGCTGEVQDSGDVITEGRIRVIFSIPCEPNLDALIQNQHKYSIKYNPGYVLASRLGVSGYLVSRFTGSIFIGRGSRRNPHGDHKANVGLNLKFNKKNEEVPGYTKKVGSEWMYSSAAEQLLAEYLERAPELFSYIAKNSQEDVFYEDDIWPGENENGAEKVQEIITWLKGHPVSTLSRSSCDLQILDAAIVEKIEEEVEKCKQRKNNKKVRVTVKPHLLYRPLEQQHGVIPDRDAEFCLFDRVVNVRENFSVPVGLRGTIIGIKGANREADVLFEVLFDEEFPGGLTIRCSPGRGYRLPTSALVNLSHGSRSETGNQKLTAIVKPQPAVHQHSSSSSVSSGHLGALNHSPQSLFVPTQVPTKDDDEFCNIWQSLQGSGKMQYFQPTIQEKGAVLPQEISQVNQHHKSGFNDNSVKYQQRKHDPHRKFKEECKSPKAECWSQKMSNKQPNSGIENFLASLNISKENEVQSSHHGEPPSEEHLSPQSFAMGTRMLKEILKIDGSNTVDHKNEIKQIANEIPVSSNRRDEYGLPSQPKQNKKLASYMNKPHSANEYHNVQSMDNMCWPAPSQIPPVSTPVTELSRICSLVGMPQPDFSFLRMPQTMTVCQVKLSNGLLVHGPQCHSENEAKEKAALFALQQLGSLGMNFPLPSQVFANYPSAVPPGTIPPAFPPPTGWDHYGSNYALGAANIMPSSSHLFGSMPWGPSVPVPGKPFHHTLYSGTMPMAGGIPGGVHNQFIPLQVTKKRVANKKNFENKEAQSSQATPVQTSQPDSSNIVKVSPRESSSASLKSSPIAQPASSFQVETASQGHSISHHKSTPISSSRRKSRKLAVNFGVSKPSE
UniProt Q96I51, whole entry, looked up: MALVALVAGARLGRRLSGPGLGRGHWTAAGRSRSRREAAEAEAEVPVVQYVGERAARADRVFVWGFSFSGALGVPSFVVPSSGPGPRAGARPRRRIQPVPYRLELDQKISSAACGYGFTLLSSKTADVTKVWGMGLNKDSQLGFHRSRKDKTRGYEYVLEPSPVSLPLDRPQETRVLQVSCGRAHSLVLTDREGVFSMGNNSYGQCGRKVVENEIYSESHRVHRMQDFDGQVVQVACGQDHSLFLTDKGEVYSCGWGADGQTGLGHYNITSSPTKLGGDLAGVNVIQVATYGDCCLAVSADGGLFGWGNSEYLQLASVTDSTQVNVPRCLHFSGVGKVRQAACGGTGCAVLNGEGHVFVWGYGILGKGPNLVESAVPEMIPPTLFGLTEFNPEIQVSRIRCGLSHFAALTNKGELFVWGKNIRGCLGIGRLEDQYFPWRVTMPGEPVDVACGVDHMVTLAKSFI
UniProt Q96P53: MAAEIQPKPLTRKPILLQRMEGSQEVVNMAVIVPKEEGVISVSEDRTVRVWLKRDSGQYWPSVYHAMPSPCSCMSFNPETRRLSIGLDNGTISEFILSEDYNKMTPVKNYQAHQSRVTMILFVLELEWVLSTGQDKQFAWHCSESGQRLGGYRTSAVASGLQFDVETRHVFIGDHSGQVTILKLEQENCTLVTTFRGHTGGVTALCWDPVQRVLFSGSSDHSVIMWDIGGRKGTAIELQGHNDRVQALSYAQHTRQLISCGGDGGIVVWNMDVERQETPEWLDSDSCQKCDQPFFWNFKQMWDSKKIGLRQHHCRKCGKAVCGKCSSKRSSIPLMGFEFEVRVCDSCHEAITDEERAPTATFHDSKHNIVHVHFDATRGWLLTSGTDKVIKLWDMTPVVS
UniProt Q5BJH7: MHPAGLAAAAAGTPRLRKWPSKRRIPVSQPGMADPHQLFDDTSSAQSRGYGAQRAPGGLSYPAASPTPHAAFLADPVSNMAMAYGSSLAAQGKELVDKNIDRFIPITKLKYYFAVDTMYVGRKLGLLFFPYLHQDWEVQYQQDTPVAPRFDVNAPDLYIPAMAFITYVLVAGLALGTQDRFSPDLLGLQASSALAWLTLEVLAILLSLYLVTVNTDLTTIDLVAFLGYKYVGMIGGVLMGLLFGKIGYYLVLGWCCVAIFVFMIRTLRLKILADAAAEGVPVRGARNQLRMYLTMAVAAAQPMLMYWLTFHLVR
UniProt Q8IWB7: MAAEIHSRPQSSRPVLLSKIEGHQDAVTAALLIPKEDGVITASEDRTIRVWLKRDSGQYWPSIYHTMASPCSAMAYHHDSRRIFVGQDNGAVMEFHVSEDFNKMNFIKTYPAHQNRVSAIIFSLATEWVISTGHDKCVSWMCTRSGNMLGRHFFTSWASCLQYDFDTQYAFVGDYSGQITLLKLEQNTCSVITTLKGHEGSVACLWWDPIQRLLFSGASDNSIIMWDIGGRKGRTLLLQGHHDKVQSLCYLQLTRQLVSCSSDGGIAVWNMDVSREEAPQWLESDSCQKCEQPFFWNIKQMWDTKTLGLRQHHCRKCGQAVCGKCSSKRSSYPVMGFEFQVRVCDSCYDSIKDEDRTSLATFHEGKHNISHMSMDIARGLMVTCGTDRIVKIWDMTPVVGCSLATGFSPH
UniProt O95070: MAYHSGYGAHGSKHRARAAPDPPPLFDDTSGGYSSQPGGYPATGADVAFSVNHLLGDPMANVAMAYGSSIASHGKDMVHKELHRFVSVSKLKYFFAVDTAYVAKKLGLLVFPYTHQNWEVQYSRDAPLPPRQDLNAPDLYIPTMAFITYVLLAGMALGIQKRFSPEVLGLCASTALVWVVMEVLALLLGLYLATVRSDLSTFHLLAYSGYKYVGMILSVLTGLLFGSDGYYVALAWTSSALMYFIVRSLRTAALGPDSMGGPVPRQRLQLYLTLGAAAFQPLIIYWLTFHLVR
UniProt Q14119: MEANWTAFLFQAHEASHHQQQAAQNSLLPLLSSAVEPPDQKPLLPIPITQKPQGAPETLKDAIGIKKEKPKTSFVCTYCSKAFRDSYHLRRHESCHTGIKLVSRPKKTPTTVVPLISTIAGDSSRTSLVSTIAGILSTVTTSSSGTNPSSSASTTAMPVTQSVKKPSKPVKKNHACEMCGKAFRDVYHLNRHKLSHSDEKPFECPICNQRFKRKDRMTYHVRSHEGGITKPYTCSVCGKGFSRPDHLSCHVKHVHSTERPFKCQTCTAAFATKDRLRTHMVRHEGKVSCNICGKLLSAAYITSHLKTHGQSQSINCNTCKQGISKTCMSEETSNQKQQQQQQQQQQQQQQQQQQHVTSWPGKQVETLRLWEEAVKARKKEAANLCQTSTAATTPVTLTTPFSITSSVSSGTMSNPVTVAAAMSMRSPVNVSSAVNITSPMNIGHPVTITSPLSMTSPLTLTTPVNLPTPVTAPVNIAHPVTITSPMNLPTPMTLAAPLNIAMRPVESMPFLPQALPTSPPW
UniProt Q9NYH9: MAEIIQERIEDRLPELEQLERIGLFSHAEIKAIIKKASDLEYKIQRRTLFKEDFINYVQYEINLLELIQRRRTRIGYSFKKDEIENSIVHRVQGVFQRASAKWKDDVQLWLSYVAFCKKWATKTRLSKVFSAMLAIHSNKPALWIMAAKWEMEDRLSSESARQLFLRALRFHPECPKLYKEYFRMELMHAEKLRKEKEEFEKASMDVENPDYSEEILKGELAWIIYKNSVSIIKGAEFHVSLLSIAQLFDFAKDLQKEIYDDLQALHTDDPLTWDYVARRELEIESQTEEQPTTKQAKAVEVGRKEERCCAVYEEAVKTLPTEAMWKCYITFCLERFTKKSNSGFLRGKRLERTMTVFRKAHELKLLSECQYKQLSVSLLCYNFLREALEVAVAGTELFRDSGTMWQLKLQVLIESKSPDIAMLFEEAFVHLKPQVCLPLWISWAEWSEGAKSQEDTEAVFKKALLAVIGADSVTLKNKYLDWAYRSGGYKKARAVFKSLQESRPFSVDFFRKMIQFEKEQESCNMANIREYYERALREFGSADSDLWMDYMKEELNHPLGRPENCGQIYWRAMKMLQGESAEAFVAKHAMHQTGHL
UniProt O43670: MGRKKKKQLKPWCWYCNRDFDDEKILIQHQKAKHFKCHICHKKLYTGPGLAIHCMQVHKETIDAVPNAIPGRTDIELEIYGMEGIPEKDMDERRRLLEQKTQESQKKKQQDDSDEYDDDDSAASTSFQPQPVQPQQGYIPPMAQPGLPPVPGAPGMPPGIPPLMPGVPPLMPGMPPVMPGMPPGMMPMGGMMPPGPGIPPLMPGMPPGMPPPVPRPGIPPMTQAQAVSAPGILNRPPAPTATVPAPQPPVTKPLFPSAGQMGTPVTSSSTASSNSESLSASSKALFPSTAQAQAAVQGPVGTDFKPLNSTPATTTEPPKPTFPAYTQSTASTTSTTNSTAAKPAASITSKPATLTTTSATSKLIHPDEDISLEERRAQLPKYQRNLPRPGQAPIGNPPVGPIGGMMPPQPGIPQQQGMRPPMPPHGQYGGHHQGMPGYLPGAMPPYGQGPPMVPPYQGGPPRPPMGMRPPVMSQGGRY
UniProt Q86U90: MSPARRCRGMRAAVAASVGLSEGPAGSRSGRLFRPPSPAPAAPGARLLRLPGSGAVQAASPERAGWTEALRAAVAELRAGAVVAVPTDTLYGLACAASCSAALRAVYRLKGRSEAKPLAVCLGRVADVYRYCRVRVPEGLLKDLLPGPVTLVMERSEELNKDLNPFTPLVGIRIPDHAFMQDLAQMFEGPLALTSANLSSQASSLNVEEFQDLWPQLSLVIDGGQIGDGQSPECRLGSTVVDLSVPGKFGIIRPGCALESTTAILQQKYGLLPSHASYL
UniProt Q96TA2: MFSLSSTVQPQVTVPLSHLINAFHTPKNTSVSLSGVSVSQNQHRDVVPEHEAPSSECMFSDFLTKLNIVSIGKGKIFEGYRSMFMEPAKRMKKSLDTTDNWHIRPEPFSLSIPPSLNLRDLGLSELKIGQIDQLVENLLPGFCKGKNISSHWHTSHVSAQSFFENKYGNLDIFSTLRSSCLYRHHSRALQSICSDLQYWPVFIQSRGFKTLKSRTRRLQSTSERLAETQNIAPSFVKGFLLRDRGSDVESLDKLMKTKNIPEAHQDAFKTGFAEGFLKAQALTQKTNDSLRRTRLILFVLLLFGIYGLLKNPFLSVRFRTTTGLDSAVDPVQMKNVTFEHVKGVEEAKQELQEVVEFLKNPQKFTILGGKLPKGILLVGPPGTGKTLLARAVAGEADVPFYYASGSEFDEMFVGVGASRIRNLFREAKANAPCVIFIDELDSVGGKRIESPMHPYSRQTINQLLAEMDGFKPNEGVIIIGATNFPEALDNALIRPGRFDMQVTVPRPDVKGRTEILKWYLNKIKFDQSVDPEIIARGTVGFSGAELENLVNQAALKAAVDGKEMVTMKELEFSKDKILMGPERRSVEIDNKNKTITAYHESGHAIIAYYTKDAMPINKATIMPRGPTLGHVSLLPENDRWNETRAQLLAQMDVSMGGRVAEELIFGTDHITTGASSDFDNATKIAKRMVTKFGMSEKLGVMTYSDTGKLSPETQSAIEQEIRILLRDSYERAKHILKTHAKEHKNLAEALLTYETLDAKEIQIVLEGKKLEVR
UniProt Q8N5P1: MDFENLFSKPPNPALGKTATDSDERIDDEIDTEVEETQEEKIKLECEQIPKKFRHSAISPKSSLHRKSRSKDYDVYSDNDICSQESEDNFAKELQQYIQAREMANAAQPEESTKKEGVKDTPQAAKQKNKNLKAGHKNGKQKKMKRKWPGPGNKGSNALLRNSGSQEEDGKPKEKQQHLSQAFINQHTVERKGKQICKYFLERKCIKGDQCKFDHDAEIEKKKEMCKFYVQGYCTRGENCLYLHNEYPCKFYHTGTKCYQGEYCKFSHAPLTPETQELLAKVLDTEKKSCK

compound: COc1ccc(Cn2ccc3ccc(C(=O)NO)cc32)cc1; assay: dose-dependent thermal stabilisation call (2D-TPP, DLPTP, 10% FDR) (binary (1 = stabilised)); higher = stabilised by the compound; details: system: HL-60 intact cells; concentration range 0.04-10 µM

Row | Target | dose-dependent thermal stabilisation call
1 | ZMYM3 (UniProt Q14202) | inactive: 0
2 | XRN1 (UniProt Q8IZH2) | inactive: 0
3 | YEATS4 (UniProt O95619) | inactive: 0
4 | USP9X (UniProt Q93008) | inactive: 0
5 | ZNF22 (UniProt P17026) | inactive: 0
6 | WBSCR16 (UniProt Q96I51) | inactive: 0
7 | ZDHHC18 (UniProt Q9NUE0) | inactive: 0
8 | YTHDC1 (UniProt Q96MU7) | inactive: 0
9 | UTP3 (UniProt Q9NQZ2) | inactive: 0
10 | ZFYVE1 (UniProt Q9HBF4) | inactive: 0
11 | WDR42A (UniProt Q5TAQ9) | inactive: 0
12 | ZMPSTE24 (UniProt O75844) | inactive: 0
13 | WDFY2 (UniProt Q96P53) | inactive: 0
14 | ZC3HC1 (UniProt Q86WB0) | inactive: 0
15 | ZBTB7A (UniProt O95365) | inactive: 0
16 | YIF1B (UniProt Q5BJH7) | inactive: 0
17 | WDFY1 (UniProt Q8IWB7) | inactive: 0
18 | YIF1A (UniProt O95070) | inactive: 0
19 | VEZF1 (UniProt Q14119) | inactive: 0

Records 12–14, reprinted for reference:
Row | Target | dose-dependent thermal stabilisation call
12 | ZMPSTE24 (UniProt O75844) | inactive: 0
13 | WDFY2 (UniProt Q96P53) | inactive: 0
14 | ZC3HC1 (UniProt Q86WB0) | inactive: 0

Carrying on.

Row | Target | dose-dependent thermal stabilisation call
20 | VPS36 (UniProt Q86VN1) | inactive: 0
21 | ZNF24 (UniProt P17028) | inactive: 0
22 | WDR81 (UniProt Q562E7) | inactive: 0
23 | XIAP (UniProt P98170) | inactive: 0
24 | UTP6 (UniProt Q9NYH9) | inactive: 0
25 | ZDHHC13 (UniProt Q8IUH4) | inactive: 0
26 | XRCC4 (UniProt Q13426) | inactive: 0
27 | ZNF207 (UniProt O43670) | inactive: 0
28 | ZMYM1 (UniProt Q5SVZ6) | inactive: 0
29 | XPR1 (UniProt Q9UBH6) | inactive: 0
30 | YRDC (UniProt Q86U90) | inactive: 0
31 | WDR35 (UniProt Q9P2L0) | inactive: 0
32 | YME1L1 (UniProt Q96TA2) | inactive: 0
33 | ZC3H8 (UniProt Q8N5P1) | inactive: 0
34 | VLDLR (UniProt P98155) | inactive: 0
35 | WIBG (UniProt Q9BRP8) | inactive: 0
36 | WDR79 (UniProt Q9BUR4) | inactive: 0
37 | YPEL5 (UniProt P62699) | inactive: 0
